At least one compound was matched to its structure with a doubt left.
Assays:
Format in all cases: biochemical
Details in all cases: acceptor sphingosine 20 mg/mL, 1 M sodium acetate pH 5.5
[1] = system: Rhodococcus sp. AQ5-07 EGC synthase (endoglycoceramide synthase), variant SEQ ID NO: 4 (E350S, Δ1-24, N-term. His-Tag; wildtype SEQ ID NO: 1); test: Km determination, Lac-F donor with sphingosine acceptor, HPLC-ELSD
[2] = system: Rhodococcus sp. strain M-777 EGC synthase (reference), variant SEQ ID NO: 17 (E351S, D314Y, A153T, Δ1-30, N-term. His-Tag; wildtype SEQ ID NO: 16); test: Km determination, Lac-F donor with sphingosine acceptor, HPLC-ELSD (reference enzyme)
[3] = system: Rhodococcus sp. AQ5-07 EGC synthase (endoglycoceramide synthase), variant SEQ ID NO: 5 (E350S, Δ146-152; wildtype SEQ ID NO: 1); test: Km determination, Lac-F donor with sphingosine acceptor, HPLC-ELSD
[4] = system: Rhodococcus sp. AQ5-07 EGC synthase (endoglycoceramide synthase), variant SEQ ID NO: 8 (E350S, D312Y, Δ1-24, N-term. His-Tag, Δ146-152; wildtype SEQ ID NO: 1); test: as above
[5] = donor Lac-F (5 mg/mL to 164 mg/mL)

OC[C@H]1O[C@@H](O[C@H]2[C@H](O)[C@@H](O)[C@@H](F)O[C@@H]2CO)[C@H](O)[C@@H](O)[C@H]1O [Lac-F, lactosyl fluoride]
Kcat [1, 5]: 2.06 s⁻¹
Km [1, 5]: 62 mM
Keff ([1]; donor Lac-F): 33.2 M⁻¹ s⁻¹
Kcat [2, 5]: 0.76 s⁻¹
Km [2, 5]: 69 mM
Keff ([2]; donor Lac-F): 11.0 M⁻¹ s⁻¹
Kcat [3, 5]: 2.28 s⁻¹
Keff ([3]; donor Lac-F): 9.0 M⁻¹ s⁻¹
Kcat [4, 5]: 2.8 s⁻¹
Km [4, 5]: 39.3 mM
Keff ([4]; donor Lac-F): 71.2 M⁻¹ s⁻¹
